Test results published in the supplement of paper PMC3682954.
Where a name gives a salt, the structure may show the parent alone. ± gives the standard deviation of the averaged measurements. The list shows a part of the results. Many values rest on one well or one pass, so single values are uncertain.

Tested on: RAW 264.7
Assay: HMGB1-induced TNF-alpha production relative to HMGB1-stimulated control; higher = more TNF-alpha secretion (less inhibition)
Details: stimulus: HMGB1 5 ug/ml, 18 h
[1] = compound concentration: 1 ug/ml

Compound | HMGB1-induced TNF-alpha production (compound concentration: 3 uM) [%] | HMGB1-induced TNF-alpha production [1] [%]
N=C(N)NCC1COC2(CCCCC2)O1 (stereo not drawn) [Guanadrel sulfate] | 103 | 
CCC[C@H](N[C@@H](C)C(=O)N1[C@H](C(=O)O)C[C@@H]2CCCC[C@@H]21)C(=O)OCC | 96.6 | 
CCC[C@H](N[C@@H](C)C(=O)N1[C@H](C(=O)O)C[C@@H]2CCCC[C@@H]21)C(=O)OCC [Perindopril] | 90.7 | 
Cc1cnc(=O)[nH]c1N [5-Methylcytosine hydrochloride] |  | 82.2
Cn1nnnc1SCC1=C(C(=O)O)N2C(=O)[C@@H](NC(=O)[C@H](O)c3ccccc3)[C@H]2SC1 [Cefamandole sodium salt] | 103 | 
Cn1nnnc1SCC1=C(C(=O)O)N2C(=O)[C@@H](NC(=O)[C@H](O)c3ccccc3)[C@H]2SC1 | 77.9 | 
Nc1ccc(C(=O)NCC(=O)O)cc1 | 110 | 
Nc1ccc(C(=O)NCC(=O)O)cc1 [Aminohippuric acid] | 93.4 | 
COc1ccc(NS(=O)(=O)c2ccc(N)cc2)nn1 [Sulfamethoxypyridazine] | 97.4 | 
COc1ccc(NS(=O)(=O)c2ccc(N)cc2)nn1 | 84.7 | 
OC[C@H]1O[C@@H](Oc2ccc(O)cc2)[C@H](O)[C@@H](O)[C@@H]1O [Arbutin] | 101 | 
Nc1ccc(S(=O)(=O)c2ccc(N)cc2)cc1 [Dapsone] | 69.8 | 
Nc1ccc(S(=O)(=O)c2ccc(N)cc2)cc1 | 85.7 | 
OCCN1CCN(CCCN2c3ccccc3Sc3ccc(Cl)cc32)CC1 [Perphenazine] | 75.7 ± 42 | 
OCCN1CCN(CCCN2c3ccccc3Sc3ccc(Cl)cc32)CC1 | 63.3 | 
CN(C)CCc1c[nH]c2ccc(Cn3cncn3)cc12 | 74.5 ± 5.1 | 
NCCCCCCCCCCN [1,10-Diaminodecane] | 80.6 | 
O=c1oc(Cl)c(Cl)c2ccccc12 [3,4-Dichloroisocoumarin] | 90 | 
N[C@H]1C(O)O[C@H](CO)[C@@H](O)[C@@H]1O (stereo partly drawn) | 87 | 
C=C1C[C@H]2[C@@H]3C=C(C)C4=CC(=O)CC[C@]4(C)[C@H]3CC[C@]2(C)[C@@]1(OC(C)=O)C(C)=O [Melengestrol acetate] | 75.3 | 
C=C1C[C@H]2[C@@H]3C=C(C)C4=CC(=O)CC[C@]4(C)[C@H]3CC[C@]2(C)[C@@]1(OC(C)=O)C(C)=O | 52.9 | 

Two records drawn at random from the list so far, as already listed:
Compound | HMGB1-induced TNF-alpha production (compound concentration: 3 uM) [%] | HMGB1-induced TNF-alpha production [1] [%]
N[C@H]1C(O)O[C@H](CO)[C@@H](O)[C@@H]1O (stereo partly drawn) | 87 | 
NCCCCCCCCCCN [1,10-Diaminodecane] | 80.6 | 

The listing continues.

Compound | HMGB1-induced TNF-alpha production (compound concentration: 3 uM) [%] | HMGB1-induced TNF-alpha production [1] [%]
C=C1C[C@H]2[C@@H]3C=C(C)C4=CC(=O)CC[C@]4(C)[C@H]3CC[C@]2(C)[C@@]1(OC(C)=O)C(C)=O [Melengestrol Acetate] | 72.6 | 
N=C(N)NC(=N)N1CCOCC1 | 84.7 | 
N=C(N)NC(=N)N1CCOCC1 [Moroxydine HCl] | 95.9 | 
CC(=O)Oc1cccc2c1C(=O)c1c(OC(C)=O)cc(C(=O)O)cc1C2=O | 81.2 | 
CC(=O)Oc1cccc2c1C(=O)c1c(OC(C)=O)cc(C(=O)O)cc1C2=O [Diacerein] | 120 | 
Cc1ncc(CSSCc2cnc(C)c(O)c2CO)c(CO)c1O | 102 | 
CC(C)NC[C@@H](O)COc1cccc2ccccc12 [(R)-Propranolol hydrochloride] | 120 | 
CC(C)NC[C@@H](O)COc1cccc2ccccc12 | 89.2 | 
CCc1cn([C@H]2C[C@H](O)[C@@H](CO)O2)c(=O)[nH]c1=O | 107 | 
CCc1cn([C@H]2C[C@H](O)[C@@H](CO)O2)c(=O)[nH]c1=O [5-Ethyl-2'-deoxyuridine ; Edoxudine] |  | 71.1
CCN(CC)CCc1nc(-c2ccccc2)no1 [Oxalamine citrate salt] | 105 | 
CCN(CC)CCc1nc(-c2ccccc2)no1 | 57.1 | 
CC(C)NCC(O)c1ccc(O)c(O)c1 (single isomer, unassigned; (+)) [(+)-Isoproterenol (+)-bitartrate salt] | 40.5 | 
CNCC(O)c1ccc(OC(=O)C(C)(C)C)c(OC(=O)C(C)(C)C)c1 (stereo not drawn) [Dipivefrin hydrochloride] | 57.6 | 
Nc1ncnc2c1c(-c1ccc(Oc3ccccc3)cc1)cn2C1CCCC1 | 76 | 
Cc1c(N(C)CS(=O)(=O)O)c(=O)n(-c2ccccc2)n1C | 85 | 
Cc1c(N(C)CS(=O)(=O)O)c(=O)n(-c2ccccc2)n1C [Dipyrone] | 95.9 | 
Nc1nc2c(nc(Br)n2[C@@H]2OC(CO)C(O)C2O)c(=O)[nH]1 (stereo partly drawn) |  | 84.2
CN(C)[C@@H]1C(O)=C(C(=O)NCN2CCCC2)C(=O)[C@@]2(O)C(O)=C3C(=O)c4c(O)cccc4[C@@](C)(O)[C@H]3C[C@@H]12 [Rolitetracycline] | 120 | 72.8
CN(C)[C@@H]1C(O)=C(C(=O)NCN2CCCC2)C(=O)[C@@]2(O)C(O)=C3C(=O)c4c(O)cccc4[C@@](C)(O)[C@H]3C[C@@H]12 | 97.9 ± 10 | 
O=c1[nH]c(=O)n(C2CCCO2)cc1F (stereo not drawn) [Ftorafur] | 104 | 
